{
  "source": "PubChem BioAssay AID540256",
  "about": "(National Center for Advancing Translational Sciences (NCATS), 2011)",
  "note": "Out of some 300,000 compounds screened, about 3,700 (1.2%) were called active. This list was built around the results that the source calls inconclusive (neither active nor inactive); the mix of calls is not that of the screen. Calls follow the shape of the full dose curve; tested in HEK293 cells. Potencies of inconclusive entries are doubtful fits and often do not repeat. % is scaled to controls: 0 for no effect and ±100 for the full control effect; potency is read from the fitted curve at half-maximal effect.",
  "data": [
    {"assay": "qHTS for Inhibitors of binding or entry into cells for Lassa Virus; also: nearly all actives have a fitted effect of over 50% in size", "details": "Lassa virus pseudotype entry inhibition, cell reporter; activity change, negative = inhibition: at 37.9 µM (top of the series) unless noted", "values": [
      {"smiles": "c1ccc(CCc2nc(-c3ccncc3)no2)cc1", "Potency": "inconclusive: 14.1 µM [activator, single point]"},
      {"smiles": "CCN(Cc1ccncc1)C(=O)c1cccs1", "Potency": "inconclusive: 2.06 µM [activator, full curve, poor fit]"},
      {"smiles": "O=C(CC(Nc1ccccc1Cl)C(=O)OCC(=O)c1cccs1)c1ccccc1", "note": "(stereo unspecified)", "activity change, negative = inhibition": "inactive: 8.85%"},
      {"smiles": "CCCNC(=O)CCc1c(C)nc2nc(CNC(=O)c3ccccc3)nn2c1C", "activity change, negative = inhibition": "inactive: 2.83% [at 46.1 µM]"},
      {"smiles": "COc1cc(CN2CCN(Cc3ccccc3C(F)(F)F)CC2)cc(OC)c1OC", "Potency": "inconclusive: 35.5 µM [inhibitor, single point]"},
      {"smiles": "Fc1ccc(-c2csc(-c3ccncc3)n2)cc1", "activity change, negative = inhibition": "inactive: 14%"},
      {"smiles": "CC(=O)OC1C(O)C(C)OC(OC2C(OC(=O)C3CCC4C(C3)OC3(CC(OC(=O)/C=C/c5ccccc5)C(C)CO3)C43CO3)OC(C)C(O)C2OC(C)=O)C1O", "note": "(stereo unspecified)", "Potency": "inconclusive: 0.0891 µM [inhibitor, full curve, poor fit]"},
      {"smiles": "O=C(Cc1ccccc1F)Nc1nc(-c2ccc(F)cc2)cs1", "Potency": "active: 4.47 µM"},
      {"smiles": "CC1CCN(CCCCOc2ccccc2Br)CC1", "Potency": "inconclusive: 25.1 µM [inhibitor, single point]"},
      {"smiles": "Oc1ccccc1/C=N/Nc1nccnc1Cl", "Potency": "active: 13 µM"},
      {"smiles": "CCc1ccc(C(=O)CSc2nc3cc(S(=O)(=O)N4CCOCC4)ccc3n2CC)cc1", "activity change, negative = inhibition": "inactive: -4.6%"},
      {"smiles": "CCOC(=O)C1(CCOC)CCN(Cc2ccncc2)CC1", "Potency": "inconclusive: 5.01 µM [activator, single point]"},
      {"smiles": "Cc1cnc(NC(=O)C2CCCC2)s1", "Potency": "inconclusive: 3.98 µM [activator, partial curve, poor fit]"},
      {"smiles": "CCCOc1ccc(Oc2nc(NC)nc(N3CCOCC3)n2)nn1", "activity change, negative = inhibition": "inactive: 17.5% [at 46.1 µM]"},
      {"smiles": "Cc1cc(Cl)ccc1NC(=O)CSc1nc2c(c(=O)[nH]1)CCC2", "activity change, negative = inhibition": "inactive: 2.89% [at 46.1 µM]"},
      {"smiles": "COc1cc2c(cc1OC)-c1cc(Nc3cccc(F)c3)nc(=O)n1CC2", "Potency": "inconclusive: 35.5 µM [inhibitor, single point]"},
      {"smiles": "CC(=O)Nc1ccc(NC(=O)[C@@H]2CCCC[C@@H]2C(=O)O)cc1", "activity change, negative = inhibition": "inactive: 7.9%"},
      {"smiles": "O=S(Cc1ccccc1)CC(O)(c1ccc(Cl)cc1)c1ccc(Cl)cc1", "note": "(stereo unspecified)", "activity change, negative = inhibition": "inactive: -22.4%"},
      {"smiles": "O=C(/C=C/c1cccs1)N1CCN(c2ccc(O)cc2)CC1", "Potency": "inconclusive: 35.5 µM [inhibitor, single point]"},
      {"smiles": "Oc1cc(O)cc(/C=C/c2ccc(O)c(O)c2)c1", "Potency": "active: 4.11 µM"},
      {"smiles": "COc1ccc(N2CCN(C(=O)CN(CCc3ccccc3)S(C)(=O)=O)CC2)cc1", "Potency": "inconclusive: 7.3 µM [inhibitor, full curve, poor fit]"},
      {"smiles": "CCCC(=O)Nc1ccc(NC(=O)c2ccccc2)nc1", "Potency": "inconclusive: 6.31 µM [inhibitor, full curve, poor fit]"},
      {"smiles": "CC1CCN(C(=S)Nc2ccc(F)cc2)CC1", "Potency": "inconclusive: 0.126 µM [inhibitor, full curve, poor fit]"},
      {"smiles": "CC(=O)c1cccc(NC(=O)c2cccc(NC(=O)c3ccco3)c2)c1", "activity change, negative = inhibition": "inactive: -28.1%"},
      {"smiles": "Cc1ccnc(Nc2nc3ccccc3s2)n1", "Potency": "inconclusive: 7.94 µM [inhibitor, partial curve, poor fit]"},
      {"smiles": "CCOc1ccccc1CNC(=O)c1ccc(-n2c(C)cc3c2CCC(C)C3)cc1", "note": "(stereo unspecified)", "Potency": "inconclusive: 35.5 µM [inhibitor, single point]"},
      {"smiles": "CCn1c2ccccc2c2cc(CN3CCN(Cc4cccc(Cl)c4)CC3)ccc21", "Potency": "inconclusive: 10 µM [inhibitor, partial curve, poor fit]"},
      {"smiles": "COC(=O)c1sc(NC(=S)NC(=O)c2ccccc2Cl)nc1C", "Potency": "inconclusive: 0.731 µM [activator, full curve, poor fit]"},
      {"smiles": "CC(=O)Cc1nsc(NC(=O)c2ccc(-c3cc(Cl)ccc3Cl)o2)n1", "Potency": "inconclusive: 5.62 µM [inhibitor, single point]"},
      {"smiles": "O=[N+]([O-])c1ccccc1SN(Cc1ccccc1)c1ccccn1", "activity change, negative = inhibition": "inactive: -0.251%"},
      {"smiles": "O=S(=O)(Nc1ccc(OC(F)F)cc1)c1ccc(-c2ccon2)s1", "activity change, negative = inhibition": "inactive: 18.7% [at 46.1 µM]"},
      {"smiles": "Cc1c(NC(=O)CSc2nnc3sc4ccccc4n23)c(=O)n(-c2ccccc2)n1C", "Potency": "inconclusive: 0.092 µM [inhibitor, full curve, poor fit]"},
      {"smiles": "Cc1cc(Br)ccc1NC(=O)c1sc2ncnc(N3CCN(c4ccccn4)CC3)c2c1C", "Potency": "inconclusive: 1.12 µM [inhibitor, partial curve, poor fit]"},
      {"smiles": "Cc1cc(C)c2c(c1)/C(=N/NC(=S)Nc1ccc(F)cc1)CCC2", "Potency": "inconclusive: 2.82 µM [inhibitor, full curve]"},
      {"smiles": "Cc1cc(C)n(CCNC(=O)CC2C(=O)NCCN2Cc2ccc(C)o2)n1", "note": "(stereo unspecified)", "Potency": "inconclusive: 0.631 µM [inhibitor, full curve, poor fit]"},
      {"smiles": "COc1ccc(-c2csc(NC(=O)c3ccco3)n2)cc1", "Potency": "inconclusive: 4.47 µM [activator, partial curve, poor fit]"},
      {"smiles": "COC(=O)c1sc2ncccc2c1OCc1cccc(Cl)c1", "activity change, negative = inhibition": "inactive: -12.5%"},
      {"smiles": "COC(=O)c1cn(NC(=O)COc2ccc(Cl)cc2)c(=O)c2ccccc12", "Potency": "inconclusive: 0.891 µM [inhibitor, single point]"},
      {"smiles": "O=c1oc(Nc2ccc(F)cc2)nc2ccccc12", "activity change, negative = inhibition": "inactive: -19.5%"},
      {"smiles": "Cc1ccc(S(=O)(=O)N2CCCC2)cc1C(=O)N1CCC(C)CC1", "activity change, negative = inhibition": "inactive: -16.2%"},
      {"smiles": "CC(C)C(=O)Nc1nc2ccc(S(C)(=O)=O)cc2s1", "Potency": "inconclusive: 25.1 µM [inhibitor, partial curve, poor fit]"}
    ]}
  ]
}
